PubChem BioAssay AID504793, Drosophila RNAi Screening Center, 2011

Assay: 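Whole-genome screen for parts of the DNA damage checkpoint at G2/M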 (primary screen)
Cells: Drosophila S2R+ cells
Reagent: long dsRNA against Drosophila genes, about 0.25 µg dsRNA per well
Duration: 4 days of dsRNA, then 4 hours of drug before read-out
Conditions: doxorubicin 0.5 µM for 4 hours to cause double-strand breaks, in cells also given a low, harmless dose of dsRNA against nbs to sensitise the assay
Measurement: 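Per-well count of mitotic cells stained for phospho-histone H3 after doxorubicin exposure, used as mitotic index; counts are raw and not normalised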
Direction: mitotic cells: higher = more cells in mitosis, weaker G2 arrest
Rule for the call: 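a call needs confirmation in secondary tests, with other dsRNAs and a check of mitotic timing without damage, not just a high primary count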
Meaning of the calls: active = confirmed in follow-up tests; inactive = not confirmed
The screen tested about 23,000 reagents; shown is an unselected part of those with a known target gene and a result. Of all reagents, 62 (0.27%) are marked active. 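Calls come from follow-up tests whose scores are not deposited, so confirmed genes may have low counts here; counts are not normalised per plate.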 The raw values are shown without normalisation. Reagents against one gene are numbered here.

The first 4 entries, to show the layout:
wda #1
- mitotic cells, replicate 1: 11
- Outcome: inactive

wda #2
- mitotic cells, replicate 1: 10
- Outcome: inactive

CG15253 #1
- mitotic cells, replicate 1: 5
- Outcome: inactive

CG15253 #2
- mitotic cells, replicate 1: 12
- Outcome: inactive

The list itself, repeating the preview:
wda #1
- mitotic cells, replicate 1: 11
- Outcome: inactive

wda #2
- mitotic cells, replicate 1: 10
- Outcome: inactive

CG15253 #1
- mitotic cells, replicate 1: 5
- Outcome: inactive

CG15253 #2
- mitotic cells, replicate 1: 12
- Outcome: inactive

CG3565
- mitotic cells, replicate 1: 1
- Outcome: inactive

CG8272
- mitotic cells, replicate 1: 5
- Outcome: inactive

KdelR
- mitotic cells, replicate 1: 3
- Outcome: inactive

cactin
- mitotic cells, replicate 1: 3
- Outcome: inactive

PH4alphaPV #1
- mitotic cells, replicate 1: 11
- Outcome: inactive

PH4alphaPV #2
- mitotic cells, replicate 1: 7
- Outcome: inactive

CG14443
- mitotic cells, replicate 1: 8
- Outcome: inactive

Skp2 #1
- mitotic cells, replicate 1: 11
- Outcome: inactive

Skp2 #2
- mitotic cells, replicate 1: 13
- Outcome: inactive

CG6689 #1
- mitotic cells, replicate 1: 2
- Outcome: inactive

CG6689 #2
- mitotic cells, replicate 1: 8
- Outcome: inactive

CG10444
- mitotic cells, replicate 1: 6
- Outcome: inactive

CG13036 (retired record)
- mitotic cells, replicate 1: 3
- Outcome: inactive

Ance-5 #1
- mitotic cells, replicate 1: 3
- Outcome: inactive

Ance-5 #2
- mitotic cells, replicate 1: 7
- Outcome: inactive

CG32830 (retired record) #1
- mitotic cells, replicate 1: 8
- Outcome: inactive

CG32830 (retired record) #2
- mitotic cells, replicate 1: 16
- Outcome: inactive

rdhB
- mitotic cells, replicate 1: 6
- Outcome: inactive

CG1690
- mitotic cells, replicate 1: 6
- Outcome: inactive

pcs
- mitotic cells, replicate 1: 2
- Outcome: inactive

CG10874 #1
- mitotic cells, replicate 1: 8
- Outcome: inactive

CG10874 #2
- mitotic cells, replicate 1: 2
- Outcome: inactive

Nepl10
- mitotic cells, replicate 1: 6
- Outcome: inactive

CG42233 #1
- mitotic cells, replicate 1: 5
- Outcome: inactive

CG42233 #2
- mitotic cells, replicate 1: 9
- Outcome: inactive

CG42233 #3
- mitotic cells, replicate 1: 4
- Outcome: inactive

CG42233 #4
- mitotic cells, replicate 1: 6
- Outcome: inactive

CG32354 #1
- mitotic cells, replicate 1: 4
- Outcome: inactive

CG32354 #2
- mitotic cells, replicate 1: 10
- Outcome: inactive

CG32354 #3
- mitotic cells, replicate 1: 4
- Outcome: inactive
